Experimental data as given in PubChem BioAssay AID1347076 (National Center for Advancing Translational Sciences (NCATS), 2019).
Hit rate of the full screen: of about 400,000 compounds, about 13,000 (3.2%) were called active. Inconclusive results, whose numbers are uncertain, are shown with a selection of clear calls. Calls come from the whole dose curve; as a rule, active = well fitted cell-killing curve with a large enough effect; inconclusive = small, poorly fitted or top-dose-only effect, or effect the other way; inactive = flat fitted curve, though single readings scatter. Potencies beside an inconclusive call are fits to weak or partial responses and may not hold up.

Test: qHTS assay for MDR1-selective chemotherapeutics: Primary screen using the drug-selected MDR subline cells KB-V1; note: nearly all actives have a fitted effect of over 60% in size
Settings: KB-V1 MDR cells viability, CellTiter-Glo, 72 h; series mostly up to 46.1 µM
In short: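 KB-V1 MDR subline cells in DMEM (phenol-red free, 10% FBS) exposed to compounds in qHTS concentration series for 72 h at 37 degrees C. Viability read by CellTiter-Glo luminescence; concentration-effect curves fitted after normalization and correction.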
Potency is the fitted concentration of half-maximal effect.

**Q.** With CC(C)Oc1ccc(C(=O)OCC(=O)c2ccc[nH]2)cc1 as the molecule, how does the Potency read?
**A.** Its Potency is inconclusive: 29.1 µM [cytotoxic, single point].

**Q.** With N#CCCN(Cc1cccnc1)C(=S)NCc1ccco1 as the molecule, how does the Potency read?
**A.** Its Potency is inconclusive: 18.4 µM [rising, single point].

**Q.** With CCN(CC)S(=O)(=O)c1ccc(C(=O)NCCSc2c[nH]c3ccccc23)cc1 as the molecule, how does the Potency read?
**A.** Its Potency is “inactive”.

**Q.** With Cc1ccc2cc(CCNC(=O)c3ccc(S(=O)(=O)N4CCCCC4)cc3)c(=O)[nH]c2c1 as the molecule, how does the Potency read?
**A.** The Potency was inconclusive: 29.1 µM [cytotoxic, single point].

**Q.** With CCN(CC)c1ccc(/C=C2\SC(N)=NC2=O)cc1 as the molecule, how does the Potency read?
**A.** Its Potency is inconclusive: 20.6 µM [rising, partial curve].

**Q.** For O=S(=O)(c1ccc(-c2csc(-c3cccnc3)n2)cc1)N1CCCC1, which Potency is on record?
**A.** Its Potency is inconclusive: 16.4 µM [cytotoxic, single point].

**Q.** For COc1ccc(-n2cnnc2SCC(=O)NC2CCCCC2)cc1, which Potency is on record?
**A.** Its Potency is active: 23.1 µM.

**Q.** With COc1cc2c(cc1OC)CN(C1CCC(C(C)(C)C)CC1)CC2 (stereo not drawn) as the molecule, how does the Potency read?
**A.** Its Potency is “inactive”.

**Q.** With C[C@@H](O)C1NC(=O)[C@H](CCCCN)NC(=O)c2cc([N+](=O)[O-])cc(F)c2NCCCC[C@@H](C(N)=O)NC1=O (stereo partly drawn) as the molecule, how does the Potency read?
**A.** Its Potency is inconclusive: 29.1 µM [rising, single point].

**Q.** For CC(=O)Nc1ccc(S(=O)(=O)N2CCC(C(=O)NCc3ccncc3)CC2)cc1, which Potency is on record?
**A.** Its Potency is inconclusive: 25.9 µM [rising, partial curve, poor fit].

**Q.** With CCCc1ccc(-c2cc(C(=O)NC3=NCCS3)c3ccccc3n2)cc1 as the molecule, how does the Potency read?
**A.** Its Potency is inconclusive: 20.6 µM [cytotoxic, single point].

**Q.** With CCOc1cccc(=O)c2c(C)oc(C)c12 as the molecule, how does the Potency read?
**A.** Its Potency is inconclusive: 25.9 µM [cytotoxic, partial curve, poor fit].

**Q.** For O=C(Cc1ccc(Br)cc1)Nc1ncc([N+](=O)[O-])s1, which Potency is on record?
**A.** Its Potency is inconclusive: 29.1 µM [cytotoxic, single point].

**Q.** Which Potency does the source give for COc1cc(C(=O)NCc2nnc(SCC(=O)NC3CCCCC3)o2)cc(OC)c1OC here?
**A.** Its Potency is inconclusive: 18.4 µM [rising, single point].

**Q.** Which Potency does the source give for CN(C(=O)CN1C(=O)/C(=C/c2ccccc2F)SC1=S)C1CCS(=O)(=O)C1 (stereo not drawn) here?
**A.** Its Potency is “inactive”.

**Q.** Which Potency does the source give for COc1cccc(-n2c(SCC(=O)c3ccc(Cl)cc3)nc3c([nH]c4ccccc43)c2=O)c1 here?
**A.** Its Potency is inconclusive: 3.26 µM [cytotoxic, partial curve, poor fit].

**Q.** Which Potency does the source give for O=C(CC1C(=O)NCCN1CC(c1ccccc1)c1ccccc1)NCCc1cn[nH]c1 (stereo not drawn) here?
**A.** Its Potency is inconclusive: 0.411 µM [rising, partial curve, poor fit].

**Q.** Which Potency does the source give for CCS(=O)(=O)N1Cc2ccccc2CC1C(=O)N(C)Cc1ccc(OC)c(F)c1 (stereo not drawn) here?
**A.** The Potency was inconclusive: 16.4 µM [cytotoxic, partial curve].

**Q.** Which Potency does the source give for CCCNC(=O)N(C)C[C@@H]1Oc2cc(C#C[C@H](C)O)ccc2S(=O)(=O)N([C@H](C)CO)C[C@H]1C here?
**A.** The Potency was “inactive”.

**Q.** Which Potency does the source give for COc1cc2c(cc1NC(=O)c1cccc(S(=O)(=O)N(C)C)c1)oc1ccccc12 here?
**A.** Its Potency is active: 10.3 µM.

**Q.** For Cc1ccc(C(C[N+](=O)[O-])c2c(N)n(C)c(=O)n(C)c2=O)cc1 (stereo not drawn), which Potency is on record?
**A.** The Potency was inconclusive: 29.1 µM [cytotoxic, single point].

**Q.** With COc1cccc(NC(=O)C(Cc2ccccc2)n2cccc2)c1 (stereo not drawn) as the molecule, how does the Potency read?
**A.** Its Potency is inconclusive: 25.9 µM [cytotoxic, single point].

**Q.** For CCCOc1ccc(C(=O)c2nc3c(n2O)CCCCC3)cc1, which Potency is on record?
**A.** The Potency was inconclusive: 20.6 µM [cytotoxic, single point].

**Q.** Which Potency does the source give for c1csc(-c2cn3c(n2)SCC3)c1 here?
**A.** Its Potency is inconclusive: 25.9 µM [rising, single point].

**Q.** With CCCN1CNC(=S)N(Cc2ccccc2)C1 as the molecule, how does the Potency read?
**A.** Its Potency is inconclusive: 29.1 µM [cytotoxic, partial curve, poor fit].

**Q.** With Fc1ccc(CSc2nnc(-c3ccncc3)o2)cc1 as the molecule, how does the Potency read?
**A.** Its Potency is inconclusive: 20.6 µM [cytotoxic, single point].

**Q.** Which Potency does the source give for O=C(NC1CCCCC1)N1CCCC1 here?
**A.** Its Potency is “inactive”.

**Q.** Which Potency does the source give for Cc1cccc(-n2c(CCn3nc(C)c([N+](=O)[O-])c3C)n[nH]c2=S)c1 here?
**A.** The Potency was “inactive”.

**Q.** With CCOC(=O)C1CCCN(Cc2nc(N)nc(Nc3ccc(Cl)cc3)n2)C1 (stereo not drawn) as the molecule, how does the Potency read?
**A.** Its Potency is inconclusive: 7.31 µM [cytotoxic, partial curve].

**Q.** Which Potency does the source give for CSc1ccc(/C=C2\C=Cc3ccccc32)cc1 here?
**A.** The Potency was “inactive”.

**Q.** With CC(=O)NC12CC3CC(C1)CC(C(=O)N1CCN(c4ncccn4)CC1)(C3)C2 as the molecule, how does the Potency read?
**A.** The Potency was “inactive”.

**Q.** For C#CCOCCOCCOCCNc1nc(N2CCN(C(=O)[C@H](Cc3ccc(O)cc3)n3cc([C@@H](N)C(C)CC)nn3)CC2)nc(N2CCN(C(=O)[C@H](Cc3cc4ccccc4[nH]3)n3cc([C@@H](N)CC(C)C)nn3)CC2)n1 (stereo partly drawn), which Potency is on record?
**A.** Its Potency is inconclusive: 29.1 µM [rising, single point].

**Q.** With Cc1cc(NC(=O)C2CC(=O)N(c3cccc(Cl)c3)C2)no1 (stereo not drawn) as the molecule, how does the Potency read?
**A.** Its Potency is “inactive”.

**Q.** For COCc1cccc(-c2csc(C(O)c3ccc(F)cc3)n2)c1 (stereo not drawn), which Potency is on record?
**A.** The Potency was “inactive”.

**Q.** With COc1cc(NC(=O)COCc2cc(-c3ccc(F)cc3)on2)cc(OC)c1OC as the molecule, how does the Potency read?
**A.** Its Potency is “inactive”.

**Q.** For O=C(Nc1ccc(Cl)c(-c2nc3cc(Cl)ccc3o2)c1)c1cc([N+](=O)[O-])ccc1N1CCOCC1, which Potency is on record?
**A.** Its Potency is “inactive”.

**Q.** For O=C(Nc1ccccc1N1CCOCC1)C1CCCCN1S(=O)(=O)c1ccccc1 (stereo not drawn), which Potency is on record?
**A.** The Potency was inconclusive: 5.8 µM [cytotoxic, full curve].

**Q.** Which Potency does the source give for Clc1ccc(OCc2nnc(SCc3nc4ccccc4[nH]3)n2Cc2ccco2)cc1 here?
**A.** Its Potency is active: 5.8 µM.

**Q.** For CCCc1cc(=O)n2nc(N3CCC(C(=O)NCc4ccco4)CC3)sc2n1, which Potency is on record?
**A.** Its Potency is inconclusive: 32.6 µM [rising, single point].

**Q.** For COc1cc(-c2nnc(SCc3c(F)cccc3Cl)o2)cc(OC)c1OC, which Potency is on record?
**A.** Its Potency is inconclusive: 0.184 µM [cytotoxic, full curve].

**Q.** For CN(C)S(=O)(=O)c1ccc(C(=O)NNc2nc(-c3ccccc3)c3cc(Br)ccc3n2)cc1, which Potency is on record?
**A.** Its Potency is inconclusive: 13 µM [cytotoxic, partial curve, poor fit].

**Q.** Which Potency does the source give for CCn1ncc(/C=N/O)c1C here?
**A.** Its Potency is inconclusive: 14.6 µM [rising, single point].

**Q.** Which Potency does the source give for COc1ccc(/C=N/NC(=O)c2cccnc2)cc1COc1ccc(NC(C)=O)cc1 here?
**A.** The Potency was inconclusive: 18.4 µM [cytotoxic, single point].

**Q.** With COc1cc(OC)c(NS(=O)(=O)c2ccc3c(c2)NC(=O)CCS3)cc1Cl as the molecule, how does the Potency read?
**A.** Its Potency is inconclusive: 23.1 µM [cytotoxic, partial curve].

**Q.** Which Potency does the source give for COc1ccc(C(CNc2ccc(C(F)(F)F)cn2)N(C)C)cc1OC (stereo not drawn) here?
**A.** Its Potency is “inactive”.

**Q.** With C=CC(C)(C)c1c2occc2c(O)c2ccc(=O)oc12 as the molecule, how does the Potency read?
**A.** Its Potency is “inactive”.

**Q.** Which Potency does the source give for Cc1ccc(S(=O)(=O)NCCSc2nnnn2-c2ccc(Cl)c(C(=O)O)c2)cc1 here?
**A.** Its Potency is inconclusive: 5.8 µM [rising, full curve, poor fit].

**Q.** For CC(C)C[C@@H](CSc1ccccc1)N1CCN(C)CCC1=O, which Potency is on record?
**A.** Its Potency is inconclusive: 3.66 µM [cytotoxic, partial curve, poor fit].

**Q.** Which Potency does the source give for O=C(Nc1ccc(N2CCCCC2)cc1)c1cc([N+](=O)[O-])cc([N+](=O)[O-])c1 here?
**A.** Its Potency is “inactive”.

**Q.** With O=[N+]([O-])c1ccc(OCC(O)CN2CCN(c3ccccc3F)CC2)cc1 (stereo not drawn) as the molecule, how does the Potency read?
**A.** Its Potency is inconclusive: 18.4 µM [cytotoxic, single point].

**Q.** With CCOCCCNC(=O)CN1C(=O)/C(=C\c2ccc(C)cc2)Sc2ccccc21 as the molecule, how does the Potency read?
**A.** Its Potency is active: 4.61 µM.

**Q.** For Cc1ccc(OCC(=O)Nc2nnc(C3CCCO3)s2)c(Br)c1 (stereo not drawn), which Potency is on record?
**A.** The Potency was inconclusive: 18.4 µM [cytotoxic, partial curve, poor fit].

**Q.** With Cc1cc(C)n2c(Nc3ccc4c(c3)OCCO4)c(-c3ccccn3)nc2n1 as the molecule, how does the Potency read?
**A.** The Potency was inconclusive: 1.3 µM [cytotoxic, full curve, poor fit].

**Q.** Which Potency does the source give for CCOC(=O)C(C(=O)OCC)C(C(=O)OCC)N1CCOCC1 (stereo not drawn) here?
**A.** The Potency was inconclusive: 29.1 µM [cytotoxic, single point].

**Q.** Which Potency does the source give for COC(=O)c1ccc(Oc2nc(N3CCCCC3)nc(N3CCOCC3)n2)cc1 here?
**A.** The Potency was inconclusive: 16.4 µM [cytotoxic, single point].

**Q.** For COc1ncnc2sc(-c3ccccc3)cc12, which Potency is on record?
**A.** Its Potency is inconclusive: 18.4 µM [cytotoxic, single point].

**Q.** With COC(=O)NNC(=O)c1ccc(C(C)(C)C)cc1 as the molecule, how does the Potency read?
**A.** The Potency was inconclusive: 23.1 µM [rising, single point].

**Q.** Which Potency does the source give for Cn1c(=O)c2c(ncn2CC(COCc2ccc(Cl)cc2)OCc2ccc(Cl)cc2)n(C)c1=O (stereo not drawn) here?
**A.** Its Potency is inconclusive: 29.1 µM [cytotoxic, single point].

**Q.** For CCOc1ccc(S(=O)(=O)NCc2ccc3c(c2)OCO3)cc1, which Potency is on record?
**A.** The Potency was “inactive”.

**Q.** For CCCc1nc2ccccc2n2c(-c3cccc(C)c3)c3c(=O)n(C)c(=O)n(C)c3c12, which Potency is on record?
**A.** The Potency was “inactive”.

**Q.** For O=C(NCc1cc(C(F)(F)F)cc(C(F)(F)F)c1)C1CC(c2ccccc2F)=NO1 (stereo not drawn), which Potency is on record?
**A.** Its Potency is “inactive”.

**Q.** With CCCOc1cccc(-c2cc(-c3n[nH]c(=S)n3CC)c3ccccc3n2)c1 as the molecule, how does the Potency read?
**A.** Its Potency is inconclusive: 14.6 µM [cytotoxic, partial curve].

**Q.** For CC#CCN(CC#CC)S(=O)(=O)c1ccc(-n2cnnn2)c(OC)c1, which Potency is on record?
**A.** The Potency was inconclusive: 10.3 µM [cytotoxic, partial curve, poor fit].

**Q.** For O=C(Nc1ccc(N2CCOCC2)c(S(=O)(=O)Nc2ccc(Cl)cc2)c1)c1cnccn1, which Potency is on record?
**A.** The Potency was inconclusive: 8.2 µM [cytotoxic, partial curve].

**Q.** Which Potency does the source give for C=CCNc1nc(Cl)nc(Nc2ccc([N+](=O)[O-])cc2)n1 here?
**A.** Its Potency is “inactive”.

**Q.** Which Potency does the source give for Cc1ccc(C)c(NC(=O)NNC(=O)c2cc3occc3[nH]2)c1 here?
**A.** The Potency was inconclusive: 29.1 µM [rising, single point].

**Q.** For O=C(Nc1nnc(-c2ccccc2Cl)o1)c1cccnc1, which Potency is on record?
**A.** The Potency was “inactive”.

**Q.** With CC(=O)Nc1ccc(NC(=O)C(C)OC(=O)C(C)SCC(=O)Nc2ccc(F)cc2)cc1 (stereo not drawn) as the molecule, how does the Potency read?
**A.** The Potency was “inactive”.
